# Results taken from PubChem BioAssay AID504648 (National Center for Advancing Translational Sciences (NCATS), 2011).
# About 610 (0.16%) of roughly 390,000 compounds were called active. The shares of active, inactive and inconclusive entries below differ from those in the screen. Calls come from the whole dose curve; as a rule, active = well fitted inhibition curve with a large enough effect; inconclusive = small, poorly fitted or top-dose-only effect, or effect the other way, or another doubt; inactive = no such curve, though single readings can be large or run the other way. Potencies beside an inconclusive call are fits to weak or partial responses and may not hold up.
# Assay: Nrf2 qHTS screen for inhibitors: counterscreen for cytotoxicity
# Details: A549 ARE-Fluc cells, CellTiter-Fluor viability, 18-24 h; activity change, negative = cytotoxicity: at 46 µM (top of the series)
# Outline: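 A549 ARE_Fluc cells in 5% FBS OPTI-MEM were exposed to compounds in concentration-response for 18-24 h at 37 deg C. Viability was read by CellTiter-Fluor fluorescence (Ex 405/Em 525) after 30 min, before the luciferase read.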
# % is set by controls: 0 for no effect and ±100 for the full control effect; potency is the fitted concentration of half-maximal effect.
SMILES,Potency,"activity change, negative = cytotoxicity"
COC(=O)c1ccc(C(=O)NC2CCCc3c2cnn3-c2cc(F)cc(F)c2)nc1 (stereo unspecified),"inconclusive: 16.4 µM [falling, partial curve, poor fit]",–
COc1ccc(Nc2ccc(N3C(=O)CC(C)C3=O)cc2[N+](=O)[O-])cn1 (stereo unspecified),"inconclusive: 20.6 µM [falling, single point]",–
CC(C)(C)CNc1nc(C#N)nc(Nc2ccccc2)n1,"inconclusive: 16.4 µM [falling, single point]",–
FC(F)(F)c1ccc(Sc2nnc(-c3cccs3)n2CC2CCCO2)nc1 (stereo unspecified),–,inactive: -2.38%
CCC1(O)C(=O)OCc2c1cc1n(c2=O)Cc2cc3c(N)cccc3nc2-1 (stereo unspecified),"inconclusive: 2.31 µM [falling, full curve]",–
CN(C)S(=O)(=O)Oc1cccc(C(=O)Nc2ccc([N+](=O)[O-])cc2)c1,"inconclusive: 16.4 µM [falling, partial curve]",–
COc1ccc(-c2cc(C3CCN(Cc4cccc(C(F)(F)F)c4)CC3)[nH]n2)cc1,"inconclusive: 29.1 µM [falling, partial curve, poor fit]",–
CC(C)c1ccc(NC(=O)CN2C(=O)COc3ccc(S(=O)(=O)Nc4ccccc4)cc32)cc1,"inconclusive: 23.1 µM [falling, partial curve, poor fit]",–
Cc1ccc(N=Cc2c(O)[nH]c3ccccc23)c([N+](=O)[O-])c1,"inconclusive: 20.6 µM [falling, partial curve]",–
CCN1/C(=C2\C(=O)N(C)C(=S)N2C)C=Cc2ccccc21,"inconclusive: 13 µM [falling, partial curve]",–
OCc1ccccc1OCCOc1ccc(Cl)c2cccnc12,–,inactive: -3.13%
Fc1ccccc1/C=C/c1ccc2ccccc2n1,"inconclusive: 18.4 µM [activator, partial curve, poor fit]",–
Cc1csc(NC(=O)CSc2nc3[nH]c(=O)cc(O)c3s2)n1,"inconclusive: 18.4 µM [falling, single point]",–
Cc1[nH]c2ccccc2c1/C=C/c1cc[n+](C)cc1,active: 8.2 µM,–
N=c1sccn1CC(=O)Nc1ccc(S(=O)(=O)N2CCOCC2)cc1,"inconclusive: 16.4 µM [falling, partial curve]",–
CS(=O)(=O)N(CC(=O)N1CCOCC1)c1ccc2c(c1)OCO2,"inconclusive: 8.2 µM [falling, partial curve, poor fit]",–
CC(C)(C)C(=O)Nc1sc2c(c1C#N)CCN(Cc1ccccc1)C2,"inconclusive: 20.6 µM [activator, single point]",–
Oc1ccc(Nc2nc(N3CCCC3)c3ccccc3n2)cc1,"inconclusive: 29.1 µM [falling, single point]",–
Cc1cc(C(=O)COC(=O)c2ccc(O)cc2)c(C)n1CCc1ccc(F)cc1,–,inactive: 0.411%
Cc1cc(C)n(-c2ccc(Cl)c(C(=O)OCC(=O)N3CCCCC3C)n2)n1 (stereo unspecified),"inconclusive: 23.1 µM [activator, partial curve, poor fit]",–
COc1ccc(C(=O)O/N=C(\N)Cc2ccc(Cl)cc2)cc1OC,"inconclusive: 20.6 µM [falling, single point]",–

# Reprinted at random: 3 compounds from above
SMILES,Potency,"activity change, negative = cytotoxicity"
CCC1(O)C(=O)OCc2c1cc1n(c2=O)Cc2cc3c(N)cccc3nc2-1 (stereo unspecified),"inconclusive: 2.31 µM [falling, full curve]",–
FC(F)(F)c1ccc(Sc2nnc(-c3cccs3)n2CC2CCCO2)nc1 (stereo unspecified),–,inactive: -2.38%
Cc1csc(NC(=O)CSc2nc3[nH]c(=O)cc(O)c3s2)n1,"inconclusive: 18.4 µM [falling, single point]",–

# (next part)

SMILES,Potency,"activity change, negative = cytotoxicity"
Cc1cc(-c2nnc3sc(C4CCCCC4)nn23)n[nH]1,–,inactive: 4.1%
COCCNC(=O)c1c(N)n(CCCn2ccnc2)c2nc3ccccc3nc12,"inconclusive: 14.6 µM [activator, partial curve]",–
COc1ccc(CN(C)C2c3ccccc3-c3ccccc32)cc1,"inconclusive: 5.8 µM [activator, partial curve, poor fit]",–
CCOc1cc(/C=C2\N=C(SC)SC2=O)cc([N+](=O)[O-])c1OC(C)=O,"inconclusive: 16.4 µM [falling, partial curve, poor fit]",–
O=C(CCl)Nc1cccc(CP(=O)(c2ccccc2)c2ccccc2)c1,"inconclusive: 18.4 µM [falling, partial curve]",–
CC(C)(C)c1ccc(-c2noc(CCC(=O)Nc3cccnc3)n2)cc1,–,inactive: -2.08%
O=C1NC(=S)S/C1=C\c1cc(Cl)cc(Cl)c1O,"inconclusive: 23.1 µM [falling, partial curve, poor fit]",–
CC[C@]12c3[nH]c4ccc(Cl)cc4c3CCN1C(=O)[C@@H](CC(=O)NCCC1=CCCCC1)C[C@@H]2C(=O)N1CCN(C(=O)c2ccco2)CC1,"inconclusive: 9.2 µM [falling, partial curve]",–
Cc1ccc(S(=O)(=O)Nc2c(C)n(C)n(-c3ccccc3)c2=O)cc1C(=O)OC(C)C(=O)N(C)c1ccccc1 (stereo unspecified),"inconclusive: 9.2 µM [falling, partial curve, poor fit]",–
COC(=O)c1ccc(CSc2n[nH]c(-c3ccccc3)n2)o1,"inconclusive: 0.82 µM [activator, full curve]",–
CC(C)(c1ccccc1)c1ccc(OCC(O)CN2CCCC2)cc1 (stereo unspecified),"inconclusive: 32.6 µM [falling, partial curve, poor fit]",–
CC(C)/C=C1\CC/C(=C\c2ccc(N(C)C)cc2)C1=O,–,inactive: -2.89%
O=C(CSc1nccn1-c1ccc(Cl)cc1)Nc1nc2ccccc2s1,–,inactive: 5.98%
Cc1onc(-c2ccccc2)c1C(=O)OCC(=O)Nc1ccc(Cl)cc1,"inconclusive: 16.4 µM [falling, single point]",–
CCN(CC)C(=O)C1CCCN(C/C(C)=C/c2ccccc2)C1 (stereo unspecified),"inconclusive: 20.6 µM [activator, partial curve]",–
Cc1nc2nc(C)c(NS(=O)(=O)c3ccc(Cl)cc3)c(=O)n2[nH]1,"inconclusive: 20.6 µM [activator, partial curve, poor fit]",–
NC(=O)N/N=C/c1ccc([N+](=O)[O-])o1,"inconclusive: 7.31 µM [falling, partial curve, poor fit]",–
CC(=O)Nc1ccc(S(=O)(=O)N2CCN=C2c2ccccc2)cc1,–,inactive: -2.83%
CCCCCCn1c(C)nc2c(c1=O)c1nc3ccccc3nc1n2/N=C/c1ccco1,"inconclusive: 23.1 µM [falling, partial curve, poor fit]",–
O=C(c1ccc(N2CCN(C(=O)c3ccccc3Br)CC2)cc1)c1cccc(F)c1,–,inactive: -22.4%
